{"source": "patent US8114435B2", "about": "“Oral pharmaceutical dosage forms comprising a proton pump inhibitor and a NSAID” (AstraZeneca AB, priority 1996, dated 2012)", "origin": "cited, not measured here", "key": {"[1]": {"details": "patients on continuous NSAID treatment vs non-NSAID users"}, "[2]": {"details": "healthy volunteers during treatment with acetyl salicylic acid"}, "[3]": {"details": "patients on continuous NSAID treatment"}}, "note": "At least one compound was matched to its structure with a doubt left."}
{"smiles": "COc1ccc2[nH]c([S+]([O-])Cc3ncc(C)c(OC)c3C)nc2c1", "note": "(stereo not drawn) [omeprazole]", "values": [{"measurement": "Healing of gastric and duodenal ulcers", "setting": "[1]", "value": "heals gastric as well as duodenal ulcers as fast and effectively in patients on continuous NSAID treatment as in non-NSAID users"}, {"measurement": "Prevention of gastric and duodenal erosions", "setting": "[2]", "value": "prevent gastric and duodenal erosions"}, {"measurement": "Risk of developing gastric ulcers, duodenal ulcers and dyspeptic symptoms", "setting": "[3]", "value": "significantly reduces the risk of developing gastric ulcers, duodenal ulcers and also dyspeptic symptoms"}]}
